Data: patent US20050123536A1 (priority 2001, published 2005)

Assay: general procedure: solution-phase peptide synthesis; DEPC; HATU
Conditions: conjugation step, overall, trifluoroacetate salt

mc-Phe-Lys-MMAE drug-linker (10.4)
conjugation yield: 32% overall
